# According to PubChem BioAssay (NCATS):
# The chains behind the UniProt entries cited, without tags or fusion partners. Where a name states a change or a piece, a line headed by the entry shows the natural chain unless it says otherwise. Residues count along the entry.
# UniProt P02791, 2-175 limits assumed: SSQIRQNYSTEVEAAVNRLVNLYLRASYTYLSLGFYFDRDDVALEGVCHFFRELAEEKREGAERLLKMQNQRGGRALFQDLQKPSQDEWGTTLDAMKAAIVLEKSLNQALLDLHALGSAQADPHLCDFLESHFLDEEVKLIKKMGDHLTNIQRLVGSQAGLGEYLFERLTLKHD
# UniProt P54132: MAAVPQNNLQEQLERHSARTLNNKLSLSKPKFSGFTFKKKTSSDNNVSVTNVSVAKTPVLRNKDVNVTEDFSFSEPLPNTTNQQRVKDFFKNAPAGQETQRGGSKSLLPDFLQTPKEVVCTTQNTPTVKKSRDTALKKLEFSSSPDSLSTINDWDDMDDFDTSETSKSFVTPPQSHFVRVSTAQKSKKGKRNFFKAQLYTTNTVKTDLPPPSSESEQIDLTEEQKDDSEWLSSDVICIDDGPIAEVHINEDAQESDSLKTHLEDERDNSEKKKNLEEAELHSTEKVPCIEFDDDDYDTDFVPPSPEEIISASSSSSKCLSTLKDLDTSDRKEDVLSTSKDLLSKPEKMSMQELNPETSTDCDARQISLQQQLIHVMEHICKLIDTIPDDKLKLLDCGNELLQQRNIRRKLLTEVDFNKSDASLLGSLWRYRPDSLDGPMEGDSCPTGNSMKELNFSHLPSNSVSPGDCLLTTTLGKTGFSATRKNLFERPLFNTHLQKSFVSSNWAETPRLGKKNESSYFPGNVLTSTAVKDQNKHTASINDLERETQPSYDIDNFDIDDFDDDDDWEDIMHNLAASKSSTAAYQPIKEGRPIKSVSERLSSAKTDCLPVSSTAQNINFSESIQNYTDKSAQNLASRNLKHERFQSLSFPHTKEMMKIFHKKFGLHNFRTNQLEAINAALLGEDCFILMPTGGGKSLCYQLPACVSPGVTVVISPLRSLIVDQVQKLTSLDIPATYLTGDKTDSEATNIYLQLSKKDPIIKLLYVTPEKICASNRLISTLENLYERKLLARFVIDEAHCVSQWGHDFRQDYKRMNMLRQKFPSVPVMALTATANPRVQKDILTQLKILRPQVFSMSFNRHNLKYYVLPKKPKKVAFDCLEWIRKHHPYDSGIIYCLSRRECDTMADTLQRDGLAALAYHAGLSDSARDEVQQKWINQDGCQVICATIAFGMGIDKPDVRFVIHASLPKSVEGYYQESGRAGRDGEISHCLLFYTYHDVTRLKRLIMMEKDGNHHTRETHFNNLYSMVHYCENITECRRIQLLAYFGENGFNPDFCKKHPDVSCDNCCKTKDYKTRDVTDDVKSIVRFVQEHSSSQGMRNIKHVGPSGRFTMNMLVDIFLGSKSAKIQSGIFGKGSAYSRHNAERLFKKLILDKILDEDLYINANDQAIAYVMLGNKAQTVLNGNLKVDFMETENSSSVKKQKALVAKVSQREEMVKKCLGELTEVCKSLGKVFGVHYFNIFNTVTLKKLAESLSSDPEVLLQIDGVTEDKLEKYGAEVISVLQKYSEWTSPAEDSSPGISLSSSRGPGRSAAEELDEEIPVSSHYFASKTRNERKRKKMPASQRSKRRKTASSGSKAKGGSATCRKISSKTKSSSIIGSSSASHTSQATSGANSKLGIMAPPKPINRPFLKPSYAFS
# UniProt O15648: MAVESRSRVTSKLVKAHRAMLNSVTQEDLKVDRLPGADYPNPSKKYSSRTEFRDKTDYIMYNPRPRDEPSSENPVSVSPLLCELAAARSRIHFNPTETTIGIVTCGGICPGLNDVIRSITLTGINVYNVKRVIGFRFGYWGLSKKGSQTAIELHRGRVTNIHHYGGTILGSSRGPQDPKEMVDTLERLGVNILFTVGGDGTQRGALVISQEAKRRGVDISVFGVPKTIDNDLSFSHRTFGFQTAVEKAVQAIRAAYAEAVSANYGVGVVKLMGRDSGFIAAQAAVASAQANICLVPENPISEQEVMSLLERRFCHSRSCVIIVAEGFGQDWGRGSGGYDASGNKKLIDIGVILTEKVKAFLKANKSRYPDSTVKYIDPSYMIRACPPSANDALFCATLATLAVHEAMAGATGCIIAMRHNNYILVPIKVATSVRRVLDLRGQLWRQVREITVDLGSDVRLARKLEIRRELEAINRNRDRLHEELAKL
# UniProt P15289: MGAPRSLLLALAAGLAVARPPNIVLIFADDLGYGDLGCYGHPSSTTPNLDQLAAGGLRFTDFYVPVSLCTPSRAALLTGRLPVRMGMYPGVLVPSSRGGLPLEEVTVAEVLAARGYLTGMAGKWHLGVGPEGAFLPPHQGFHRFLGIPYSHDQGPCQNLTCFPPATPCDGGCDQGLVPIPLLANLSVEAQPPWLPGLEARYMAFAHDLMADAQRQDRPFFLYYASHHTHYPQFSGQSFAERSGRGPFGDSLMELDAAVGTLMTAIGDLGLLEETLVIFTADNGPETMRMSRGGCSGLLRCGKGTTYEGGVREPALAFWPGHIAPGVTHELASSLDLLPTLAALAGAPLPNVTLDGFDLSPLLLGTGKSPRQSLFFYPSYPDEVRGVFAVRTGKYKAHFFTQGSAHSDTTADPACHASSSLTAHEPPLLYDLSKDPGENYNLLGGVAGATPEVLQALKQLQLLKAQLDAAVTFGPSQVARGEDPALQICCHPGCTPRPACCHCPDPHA
# Inconclusive results, whose numbers are uncertain, are shown with a selection of clear calls. For some assays here: Where the call is inconclusive, the potency comes from a doubtful curve fit. Calls of active or inactive are those of the source. Unless noted, calls come from the whole dose curve; as a rule, active = well fitted curve in the direction sought with a large enough effect; inconclusive = small, poorly fitted or top-dose-only effect, or another doubt; inactive = no such curve, though single readings can be large; an effect the other way counts as inactive or inconclusive. Where a SMILES comes first, the peptide text is derived from it. [ ]: non-standard residue; d: D form. The star is where a group is joined. Benzoyl(4-tBu) = CC(C)(C)c1ccc(C(=O)*)cc1; Lys(Et2) = CCN(CC)CCCC[C@H](N)C(=O)O
# Legend:
# [1] = UWB1.289-WTBRCA1 Cancer Cell Toxicity qHTS against the NCATS CANVASS Library (AID 1347354); note: potency is the fitted concentration of half-maximal effect
# How it was run: (§1)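 Luminescent ATP read-out (CellTiter-Glo, 15min at room temperature) measures survival after cells face an 11-point compound series for 72 hours at 37 degrees C/5% CO2.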
# [2] = KB-3-1 Cancer Cell Toxicity qHTS against the NCATS CANVASS Library (AID 1347366); note: % is set by controls: 0 for no effect and ±100 for the full control effect; nearly all actives have a fitted effect of over 75% in size
# How it was run: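 Cytotoxicity toward KB-3-1 cells (500/well, DMEM + 10% FBS) was scored by CellTiter-Glo luminescence following 72 hr exposure at 37C, with bortezomib titrated as control.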
# [3] = qHTS for Antimalaria activity screened against the NCATS CANVASS Library (AID 1347380); note: potency is the fitted concentration of half-maximal effect; nearly all actives have a fitted effect of over 40% in size
# How it was run: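 Dd2 strain, infected erythrocytes 2.5% Hct final / 0.3% parasitemia. 11-pt qHTS titration, 72 h, 37C, 5% O2, 5% CO2. Lysis buffer + SYBR Green, 18 h, fluorescence 485/535 nm.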
# [4] = Secretion counterscreen for inhibitors of the SERCaMP assay screened against the NCATS CANVASS Library (AID 1347390); conditions: SH-SY5Y constitutive GLuc secretion, luminescence, 20 h; activity change, negative = inhibition: at 76.6 µM (top of the series);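 note: light from luciferase secreted into medium read as a measure of general secretion; % is set by controls: 0 for no effect and ±100 for the full control effect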
# How it was run: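 Natural products are titrated in an 11-point series up to 77 uM onto SH-SY5Y-GLuc STOP cells for 20 h. Secreted reporter activity is measured as coelenterazine-driven luminescence, with Brefeldin A on each plate.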
# [5] = UWB1.289 Cancer Cell Toxicity qHTS against the NCATS CANVASS Library (AID 1347347); note: % is set by controls: 0 for no effect and ±100 for the full control effect; nearly all actives have a fitted effect of over 60% in size
# How it was run: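 Following a 4 h pre-incubation of 1000 seeded cells, compounds were pinned in an 11-pnt dilution series and left for 72 h; viability then came from CellTiter-Glo.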
# [6] = A2780 Cisplatin Sensitive Ovarian Cancer Cell Toxicity qHTS against the NCATS CANVASS Library (AID 1347353); note: potency is the fitted concentration of half-maximal effect; nearly all actives have a fitted effect of over 60% in size
# How it was run: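 Luminescent ATP content (ATPLite, 10 min at room temperature) served as the read-out after cells had been exposed to compounds for 72 hours at 37 °C. Dosing followed an 11-point concentration series.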
# [7] = HEK-293 Cancer Cell Toxicity qHTS against the NCATS CANVASS Library (AID 1347355); note: potency is the fitted concentration of half-maximal effect; nearly all actives have a fitted effect of over 65% in size
# How it was run: as §1
# [8] = SDT Cancer Cell Toxicity qHTS against the NCATS CANVASS Library (AID 1347365); note: potency is the fitted concentration of half-maximal effect; nearly all actives have a fitted effect of over 60% in size
# How it was run: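 qHTS, SDT dog glioma line, 500 cells/well; cpds 11 pts; 72 hr, 37C, 5% CO2; CellTiterGlo ATP luminescence.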
# [9] = G06 Cancer Cell Toxicity qHTS against the NCATS CANVASS Library (AID 1347368); note: potency is the fitted concentration of half-maximal effect; nearly all actives have a fitted effect of over 60% in size
# How it was run: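 Dog G06 glioma line, 500 cells/well; cpds pin-transferred, 11-pt; 72 hr, 37C/5% CO2; CellTiterGlo luminescence (ATP) endpoint.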
# [10] = qHTS for activators of Nrf2/ARE signaling pathway screened against the NCATS CANVASS Library (AID 1347391)
# How it was run: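 Plate ARE-bla HepG2 cells at 2000/well and let them settle 5 h. Pin-transfer compounds in DMSO, incubate 16 h at 37C. Load CCF4 for 2 h at room temperature and read blue/green fluorescence.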
# [11] = qHTS for inhibitors of ER calcium dysfunction: SERCaMP assay screened against the NCATS CANVASS Library (AID 1347393); conditions: SH-SY5Y GLuc-SERCaMP secretion, thapsigargin, luminescence; activity change, negative = inhibition: at 76.6 µM (top of the series) unless noted; note: potency is the fitted concentration of half-maximal effect; nearly all actives have a fitted effect of over 40% in size
# How it was run: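 Thapsigargin-induced ER calcium depletion drives GLuc-SERCaMP secretion from SH-SY5Y cells; compounds given 16 h beforehand were scored by lowered coelenterazine luminescence after 4 h challenge.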
# [12] = qHTS to identify inhibitors of the type 1 interferon - major histocompatibility complex class I in skeletal muscle: primary screen against the NCATS Mechanism Interrogation Plate v5.0 (MIPE) Libary (AID 1347411); conditions: iHSKM cells + IFN-b, HiBiT-tagged MHC-I luminescence, 24 h; activity change, negative = inhibition: at 45.8 µM (top of the series); note: nearly all actives have a fitted effect of over 65% in size; note: potency is the fitted concentration of half-maximal effect;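 for activity change, negative = inhibition: plate controls were vehicle for no effect and reference inhibitor for full effect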
# How it was run: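 Luminescence from HiBiT-tagged endogenous HLA-B*08:01 served as the MHC class I read-out. CRISPR-engineered C25cl48 human myoblasts received 4.0 ng/ml IFN-beta plus compound for 24 hrs, with an 11-point, 1:3 series topping at 46 uM final.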
# [13] = qHTS Assay for Lipid Storage Modulators (AID 1519; calls by dose curve; note: % is set by controls: 0 for no effect and ±100 for the full control effect); conditions: Drosophila S3 cells, BODIPY lipid droplet/cell ratio, laser cytometry, cells loaded with oleic acid; activity change, negative = inhibition: at 57.5 µM (top of the series) unless noted
# How it was run: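 Cells seeded at 5,000 per well were treated with compounds over a concentration series and loaded with oleic acid (400 uM, as added). Lipid droplet fluorescence (488 nm excitation, 500-530 nm channel) was read by laser-scanning cytometry and normalized to 20 uM Triacsin C.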
# [14] = qHTS for differential inhibitors of proliferation of Plasmodium falciparum line HB3 (AID 1886); conditions: Potency: Plasmodium falciparum HB3 proliferation inhibition;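 note: parasites grown with compound for 72 h before SYBR Green readout; plate controls were vehicle for no effect and reference inhibitor for full effect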
# [15] = target: Ferritin light chain (Equus caballus) (UniProt P02791); assay: qHTS Validation Assay for Identification of Novel General Anesthetics (AID 2323); note: % is set by controls: 0 for no effect and ±100 for the full control effect
# How it was run: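 Normalized fluorescence response, scaled between free 1-AMA and 1-AMA/apoferritin complex, fitted to a four-parameter Hill equation for concentration-effect values. Binding mix: 10 uM horse-spleen apoferritin, 50% saturated 1-AMA in PBS; read 380/535 nm after 10 min.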
# [16] = target: RecQ-like DNA helicase BLM (Homo sapiens) (UniProt P54132); assay: qHTS Validation Assay for Inhibitors of Bloom's syndrome helicase (BLM) (AID 2364);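 note: plate controls were DMSO vehicle for no effect and enzyme-free control for full effect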
# How it was run: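 Forked 20-bp duplex substrate (200 nM, TAMRA/BHQ-2) plus 2 mM ATP added after 15 min compound preincubation with 50 nM enzyme, pH 8.0, poly(dI-dC) 2.5 ug/ml. Strand separation followed by fluorescence (525/598 nm) over 2 h, normalized to enzyme-free and DMSO controls.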
# [17] = qHTS Validation Assay to Find Inhibitors of Chronic Active B-Cell Receptor Signaling (AID 485345; active = well fitted curve in the direction sought with a large enough effect in the main read-out, with a control signal flat, not every such curve was filed as active; inconclusive = small, poorly fitted or top-dose-only effect, or effect the other way, or a change in a side signal; inactive = no such curve, though single readings can be large or run the other way;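 note: 0% = untreated basal cells and 100% = 10 µM MG-132 proteasome inhibitor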); conditions: ABC-DLBCL cells, chronic BCR signaling reporter, CBG luciferase; at 46.1 µM (top of the series)
# How it was run: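 Read-out: ratio of filter-corrected green (IkappaBalpha fusion) to red (native) luciferase signal in doxycycline-induced TMD8 cells after 4 h at 37C. Titration spanned 46 uM–3 nM; Data were normalised to basal cells and 10 uM MG-132 wells.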
# [18] = target: ATP-dependent 6-phosphofructokinase (Trypanosoma brucei brucei) (UniProt O15648); assay: qHTS Validation Assay to Find Inhibitors of T. brucei phosphofructokinase (AID 485368)
# How it was run: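 Enzyme reaction in triethanolamine buffer pH 8.0 with 5 mM MgCl2, 0.01% Tween20 and 0.1% BSA; PFK 1.25 nM, F6P 0.5 mM, ATP 0.1 mM, 45 min RT. ADP quantified by ADP-Glo.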
# [19] = qHTS of Nrf2 Activators: LOPAC Validation (AID 624149); note: 0% is about no effect
# How it was run: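 Luminescence read-out of ARE-luciferase activation: AREc32_Fluc cells treated with compounds for 24 hr at 37 deg C, then lysed with Steady-Glo for 30 min at room temperature before reading.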
# [20] = target: Arylsulfatase A (Homo sapiens) (UniProt P15289); assay: qHTS screen for enhancers of Arylsulfatase A (ASA1): LOPAC Validation Assay (AID 720538); conditions: activity change, positive = activation: at 57.5 µM (top of the series); note: potency is the fitted concentration of half-maximal effect
# How it was run: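 Cell-based enhancement test: residual ASA activity in SV40-transformed I179S patient fibroblasts is measured by pNCS turnover (0.5mM final, 14h, room temperature) following 48h compound incubation; higher fluorescence indicates activation.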
# [21] = qHTS for inhibitors of adenylyl cyclases using a fission yeast platform: a pilot screen against the NCATS LOPAC library (AID 1347410);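 note: plate controls were DMSO vehicle for no effect and DPI positive control for full effect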; conditions: S. pombe CHP2027, fbp1-GFP fluorescence, 18 h, yeast expressing mammalian AC9 and human GNAS; at 57.5 µM (top of the series)
# How it was run: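 Inhibition of GNAS-stimulated AC9 activity in S. pombe was inferred from derepression of a PKA-repressed fbp1-GFP reporter, measured as cytometric fluorescence after 18 h at 30C with compounds at up to 57 µM.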
smiles,measurement,setting,value
C[C@@]12CCC[C@@](C)(C(=O)O)[C@H]1CC[C@]13C[C@H]4C[C@H](O[C@@]4(C)C1)[C@H]32,Potency,[1],"inconclusive: 21.1 µM [cytotoxic, single point]"
same,Potency,[2],inactive
same,Potency,[3],"inconclusive: 11.8 µM [rising, partial curve, poor fit]"
same,Potency,[4],inactive
C=C1C(=O)C[C@H]2C[C@@H]1[C@]2(C)CCC=C(C)C,Potency,[5],inactive
same,Potency,[6],"inconclusive: 37.2 µM [cytotoxic, single point]"
same,Potency,[7],"inconclusive: 33.2 µM [cytotoxic, single point]"
same,Potency,[8],"inconclusive: 26.4 µM [cytotoxic, partial curve, poor fit]"
same,Potency,[9],"inconclusive: 13.2 µM [cytotoxic, partial curve, poor fit]"
same,Potency,[3],"inconclusive: 0.0017 µM [cytotoxic, full curve, poor fit]"
same,Potency,[10],active: 16.6 µM
same,Potency,[11],active: 19.3 µM
CCN(CC)CCCC[C@H](NC(=O)[C@H](CC(C)C)NC(=O)[C@H](C)NC(=O)[C@H](Cc1ccccc1)NC(=O)c1ccc(C(C)(C)C)cc1)C(=O)N[C@@H](CO)C(=O)OC ({Benzoyl(4-tBu)}-FAL[Lys(Et2)]S-OMe),Potency,[12],inactive
Nc1nc2cc(-c3ccc4ncc(C(=O)N5CCOCC5)n4c3)ccc2o1,Potency,[12],"inconclusive: 18.6 µM [inhibitor, partial curve]"
CC(C)(C)NCC(O)COc1cccc2[nH]c(=O)[nH]c12 (stereo not drawn),"activity change, negative = inhibition",[13],inconclusive: 1.2%
same,Potency,[14],inactive
same,Potency,[15],inactive
same,Potency,[16],inactive
same,activity change,[17],inactive: -5.82%
same,Potency,[18],inactive
same,Potency,[19],inactive
same,Potency,[20],"inconclusive: 6.01 µM [activator, single point]"
same,"activity, positive = inhibition (GFP gain)",[21],inactive: 0.118%

# Pulled one by one from the list above, two records:
smiles,measurement,setting,value
Nc1nc2cc(-c3ccc4ncc(C(=O)N5CCOCC5)n4c3)ccc2o1,Potency,[12],"inconclusive: 18.6 µM [inhibitor, partial curve]"
C=C1C(=O)C[C@H]2C[C@@H]1[C@]2(C)CCC=C(C)C,Potency,[8],"inconclusive: 26.4 µM [cytotoxic, partial curve, poor fit]"
